Source: the supplement of paper PMC7877785
± gives the uncertainty stated by the source. The uncertainty is large for many entries.

Assay: self-splicing fitness, log relative to wild type (ln ratio); higher = more splicing; Tetrahymena group I intron in knt gene, E. coli kanamycin selection, DiMSum; sequences stand for … in CUCUCU…GGAGGGAAAAGUUAUCAGGCAUGCACCUGGUAGCUAGUCUUUAAACCAAUAGAUUGCAUCGGUUUAAAAGGCAAGACCGUCAAAUUGCGGGAAAGGGGUCAACAGCCGUUCAGUACCAAGUCUCAGGGGAAACUUUGAGAUGGCCUUGCAAAGGGUAUGGUAAUAAGCUGACGGACAUGGUCCUAACCACGCAGCCAAGUCCUAAGUCAACAGAUCUUCUGUUGAUAUGGAUGCAGUUCACAGACUAAAUGUCGGUCGGGGAAGAUGUAUUCUUCUCAUAAGAUAUAGUCGGACCUCUCCUUAAUGGGAGCUAGCGGAUGAAGUGAUGCAACACUGGAGCCGCUGGGAACUAAUUUGUAUGCGAAAGUAUAUUGAUUAGUUUUGGAGUACUCGUGGUCG
Summary of the method: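 Library with all eight P1ex-region intron nucleotides randomised, intron inside the knt kanamycin-resistance gene on pET-22b(+), in E. coli BL21(DE3). Cells grew overnight at 37°C or 30°C on LB agar with or without 25 μg/mL kanamycin (plus 100 μg/mL carbenicillin, 50 μM IPTG, 0.2% rhamnose), in six replicate transformations. Pooled colonies were amplicon-sequenced on Illumina HiSeq 2500. DiMSum fitness is the error-weighted combination of wild-type-normalised replicate fold changes, kanamycin versus none.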

Sequence | self-splicing fitness (ln) (30 °C) | self-splicing fitness (ln) (37 °C)
CGAGAGCAAUAUUACGUUGU | -4.63 ± 0.59 | 
AGAGAGCAAUAUUACGUAAC | -4.93 ± 1 | 
GCGUAGCAAUAUUACGAACC | -0.706 ± 0.56 | 
CUUUAGCAAUAUUACGCGAG |  | -3.68 ± 0.72
GACGAGCAAUAUUACGAUAA | -4.47 ± 0.72 | 
UAGGAGCAAUAUUACGGCCA | -2.27 ± 0.21 | -1.7 ± 0.27
CAUAAGCAAUAUUACGAACC | -4.43 ± 0.72 | 
GACUAGCAAUAUUACGUAAG | -0.946 ± 0.087 | -0.709 ± 0.11
UAGUAGCAAUAUUACGAAGC | -5.23 ± 1 | 
GGGCAGCAAUAUUACGCAGC | -2.36 ± 1.2 | -2.36 ± 0.63
CAGGAGCAAUAUUACGACGA |  | -1.62 ± 1.1
GUCGAGCAAUAUUACGAAUG | -4.06 ± 0.35 | -0.777 ± 0.2
AAUAAGCAAUAUUACGCAAA | -1.62 ± 0.23 | -2.05 ± 0.25
UCUUAGCAAUAUUACGUCAU |  | -1.57 ± 0.59
GGAGAGCAAUAUUACGCUAA | -4.03 ± 0.74 | -4.21 ± 1
ACCGAGCAAUAUUACGCCUA | -3.64 ± 0.54 | 
ACGUAGCAAUAUUACGAAAC | -2.02 ± 0.45 | -2.26 ± 0.4
CUCCAGCAAUAUUACGACGC | -3.37 ± 0.52 | -3 ± 0.61
UCUGAGCAAUAUUACGACAC | -1.27 ± 1.4 | -0.0848 ± 1.2
CUAGAGCAAUAUUACGUGGA | -3.21 ± 0.19 | -1.68 ± 0.18
AGGGAGCAAUAUUACGAAUA | -3.51 ± 0.76 | -2.55 ± 0.62
UAGUAGCAAUAUUACGAAAA | -1.55 ± 0.76 | -2.57 ± 1.1
GCAUAGCAAUAUUACGCACC |  | -0.954 ± 0.61
UUUCAGCAAUAUUACGAUUC | -1.69 ± 0.91 | 

Sequence | self-splicing fitness (ln) (30 °C) | self-splicing fitness (ln) (37 °C)
UCUGAGCAAUAUUACGGGAA | -3.49 ± 0.6 | 
UCUUAGCAAUAUUACGGCGC | -2.61 ± 0.39 | -2.53 ± 0.64
CUAUAGCAAUAUUACGAUCG | -0.256 ± 0.075 | 0.439 ± 0.1
GUCGAGCAAUAUUACGAAAA | -3.31 ± 0.54 | 
CUUGAGCAAUAUUACGCGCC | -4.19 ± 1 | -2.89 ± 1.1
CAGAAGCAAUAUUACGUGGC | -3.7 ± 0.16 | -2.15 ± 0.15
UUCGAGCAAUAUUACGGUGU | -3.68 ± 0.53 | 
CAGUAGCAAUAUUACGGCCC | -3.06 ± 1.1 | -1.08 ± 0.93
UGGUAGCAAUAUUACGGCAC | -2.22 ± 0.7 | 
CGACAGCAAUAUUACGUAUC | -4.74 ± 0.58 | 
CCUCAGCAAUAUUACGUCUC |  | -3.38 ± 0.6
CUGGAGCAAUAUUACGGUGG | -3.55 ± 0.14 | -1.93 ± 0.12
AGAUAGCAAUAUUACGAGAA | -1.89 ± 0.54 | -0.625 ± 0.65
CGGGAGCAAUAUUACGCACA | -2.75 ± 0.62 | -1.37 ± 1.2
GCUAAGCAAUAUUACGCGGC | -0.424 ± 0.19 | -2.64 ± 0.5
CCGUAGCAAUAUUACGCUUA | -3.52 ± 0.45 | -1.7 ± 0.35
UAAAAGCAAUAUUACGUGAC | -3.65 ± 0.52 | 
UGUCAGCAAUAUUACGCCAC |  | -1.41 ± 0.61
CUCUAGCAAUAUUACGGCGA | -3.08 ± 0.76 | -1.76 ± 0.58
GAGUAGCAAUAUUACGAUCC | -1.55 ± 0.092 | -0.509 ± 0.11
ACCGAGCAAUAUUACGCAUC |  | -2.28 ± 0.56
CGGGAGCAAUAUUACGGGCC |  | -2.06 ± 0.56
UUCUAGCAAUAUUACGCAGG |  | -2.6 ± 0.54
GUUGAGCAAUAUUACGGAAA |  | -1.75 ± 0.61

Sequence | self-splicing fitness (ln) (30 °C) | self-splicing fitness (ln) (37 °C)
CGGGAGCAAUAUUACGUUAC | -4.64 ± 1 | -2.35 ± 0.64
GGGUAGCAAUAUUACGCCCU | -1.83 ± 0.61 | -1.1 ± 0.5
CUUUAGCAAUAUUACGCAGC | -4.38 ± 0.72 | 
CAUGAGCAAUAUUACGGACC | -3.25 ± 0.54 | -1.5 ± 0.69
GCGGAGCAAUAUUACGCAAA | -2.32 ± 0.58 | -1.93 ± 0.68
CUUUAGCAAUAUUACGCGUG | -1.89 ± 0.14 | -1.12 ± 0.17
GUUGAGCAAUAUUACGUGGU |  | -3.16 ± 0.61
UCCUAGCAAUAUUACGCCGG | -4.18 ± 0.59 | 
GCUGAGCAAUAUUACGAAAA | 0.636 ± 0.78 | 
AUGGAGCAAUAUUACGAAGU | -3.07 ± 1.1 | 
GUUUAGCAAUAUUACGUUUA | -2.69 ± 0.23 | -0.853 ± 0.17
UUUUAGCAAUAUUACGAUUC | -3.21 ± 1.1 | -0.988 ± 0.54
AGAGAGCAAUAUUACGUUUA | -3.2 ± 0.64 | 
GGAUAGCAAUAUUACGCGCC |  | 0.819 ± 0.51
AUCUAGCAAUAUUACGAGCC |  | -2.02 ± 0.5
CGAGAGCAAUAUUACGCCAC | -5.25 ± 1 | -1.38 ± 0.74
ACUAAGCAAUAUUACGCUAA | -3.83 ± 0.43 | -1.92 ± 0.38
ACAUAGCAAUAUUACGAGAC | -3.32 ± 0.75 | -3.09 ± 0.52
CAGGAGCAAUAUUACGCGGU | -4.7 ± 1 | 
UGGGAGCAAUAUUACGUCCG | -0.868 ± 1.4 | 0.0657 ± 0.64
GAAGAGCAAUAUUACGGUGC | -4.64 ± 0.73 | 
CGUUAGCAAUAUUACGGGGA | -4.1 ± 1 | 
GGGAAGCAAUAUUACGCCCG | -1.02 ± 0.52 | 
UGGCAGCAAUAUUACGGCUU | -0.209 ± 0.075 | 0.316 ± 0.098

Sequence | self-splicing fitness (ln) (30 °C) | self-splicing fitness (ln) (37 °C)
AGGUAGCAAUAUUACGUCUA | -0.666 ± 0.015 | -0.259 ± 0.033
ACGGAGCAAUAUUACGAGCA |  | -2.71 ± 0.62
CUCCAGCAAUAUUACGAAGA | -3.9 ± 0.73 | 
UCCUAGCAAUAUUACGAAAC | -3.46 ± 1.1 | -0.756 ± 0.66
UGGGAGCAAUAUUACGCUAC | 0.0943 ± 0.78 | 0.917 ± 1.1
GGGGAGCAAUAUUACGGGAA | -3.07 ± 1.1 | 
UCGUAGCAAUAUUACGCAUC | -4.16 ± 1 | 
CUGGAGCAAUAUUACGCAUU |  | -2.03 ± 1.1
CAGCAGCAAUAUUACGGUUC | -2.92 ± 0.26 | -1.5 ± 0.17
CAAUAGCAAUAUUACGCGCC | -2.93 ± 1.1 | 
AAAGAGCAAUAUUACGCCCU | -2.57 ± 0.21 | -0.718 ± 0.17
UCGGAGCAAUAUUACGAAAG | -4.13 ± 0.76 | 
CUAAAGCAAUAUUACGUUCU | -4.08 ± 0.24 | -3.07 ± 0.26
CUUGAGCAAUAUUACGAAUG | -1.23 ± 0.12 | -0.596 ± 0.19
UCGGAGCAAUAUUACGGAUG | -3.59 ± 0.54 | -2.04 ± 0.6
UCUGAGCAAUAUUACGCCAU | -4.19 ± 0.52 | 
AAUGAGCAAUAUUACGGGCG | -4.51 ± 0.51 | 
ACAGAGCAAUAUUACGACAA | -4.72 ± 0.51 | 
UCGUAGCAAUAUUACGCAGC |  | -3.16 ± 0.74
CACCAGCAAUAUUACGUAUU | -3.78 ± 0.15 | -2.7 ± 0.16
CAUUAGCAAUAUUACGAUCC | -3.13 ± 1 | 
UUUCAGCAAUAUUACGCGAC |  | -2.05 ± 0.5
GGUGAGCAAUAUUACGUUCA | -3.86 ± 0.73 | 
AUCGAGCAAUAUUACGAGGC | -3.17 ± 0.64 | 

Sequence | self-splicing fitness (ln) (30 °C) | self-splicing fitness (ln) (37 °C)
CUCAAGCAAUAUUACGGACC | -3.48 ± 0.6 | -1.06 ± 0.53
UCUUAGCAAUAUUACGGAAG | -2.59 ± 0.56 | 
GCAGAGCAAUAUUACGCGUU | -1.48 ± 0.11 | -2.09 ± 0.16
GCCAAGCAAUAUUACGCAUG | -4.41 ± 0.46 | -2.22 ± 0.3
UCAGAGCAAUAUUACGUACU | -3.35 ± 0.34 | -2.24 ± 0.3
ACCGAGCAAUAUUACGCCGG | -4.79 ± 0.59 | -2.58 ± 0.62
CGGUAGCAAUAUUACGCAUU | -4.45 ± 0.59 | 
CGGCAGCAAUAUUACGCUCG | -3.75 ± 0.64 | 
AUAGAGCAAUAUUACGGGGA | -4.2 ± 0.72 | 
UUGGAGCAAUAUUACGAGGU |  | -2.56 ± 0.75
GAGGAGCAAUAUUACGAUAG | -5.16 ± 1 | -1.96 ± 0.85
GGUUAGCAAUAUUACGCAGA | -1.17 ± 0.24 | -2.02 ± 0.26
CUCGAGCAAUAUUACGACGC |  | -3.23 ± 1
UUCUAGCAAUAUUACGGAAA | -2.01 ± 0.65 | 
AGAAAGCAAUAUUACGCGGC | -3.54 ± 1 | -2.46 ± 0.55
GCCGAGCAAUAUUACGCUGG | -4.11 ± 0.52 | 
GGGGAGCAAUAUUACGCCCC | -0.135 ± 1.2 | -2.54 ± 1.1
AACGAGCAAUAUUACGAUCC |  | -2.9 ± 1.1
CUGUAGCAAUAUUACGCUCU |  | -3.26 ± 0.6
UGGGAGCAAUAUUACGUGAC | -3.71 ± 0.6 | 

Laid out differently: entries from further up.
Sequence,self-splicing fitness (ln) (30 °C),self-splicing fitness (ln) (37 °C)
GCAGAGCAAUAUUACGCGUU,-1.48 ± 0.11,-2.09 ± 0.16
GCCAAGCAAUAUUACGCAUG,-4.41 ± 0.46,-2.22 ± 0.3
UCAGAGCAAUAUUACGUACU,-3.35 ± 0.34,-2.24 ± 0.3
UUCUAGCAAUAUUACGGAAA,-2.01 ± 0.65,
CUGUAGCAAUAUUACGCUCU,,-3.26 ± 0.6
